Patent US20170137803

Key:
[1] = molecular target: T1, PUF-R6(SYxxR) N1043S/Q1047R (Homo sapiens) (UniProt Q14671); test: binding assay; conditions: yeast three-hybrid; strongest target; protein in cells; protein details: Gal4 AD fusion; variant of NRE RNA
T1 sequence: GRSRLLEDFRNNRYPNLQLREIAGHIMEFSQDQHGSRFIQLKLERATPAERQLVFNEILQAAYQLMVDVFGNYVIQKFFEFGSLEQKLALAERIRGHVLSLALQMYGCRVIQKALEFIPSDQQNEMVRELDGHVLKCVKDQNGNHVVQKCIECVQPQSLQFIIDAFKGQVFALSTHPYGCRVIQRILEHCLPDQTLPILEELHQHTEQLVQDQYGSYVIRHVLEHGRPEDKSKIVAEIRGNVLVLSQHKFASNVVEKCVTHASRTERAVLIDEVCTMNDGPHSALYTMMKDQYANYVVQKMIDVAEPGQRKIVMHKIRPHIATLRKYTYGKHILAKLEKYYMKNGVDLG

[2] = molecular target: T2, ASRE(WT) (PUM1 PUF-PIN SMG6 fusion) (Homo sapiens) (UniProt Q14671); test: enzyme reaction in vitro; conditions: no cleavage; purified recombinant protein; protein details: His6 (removable); variant of NRE RNA
T2 sequence: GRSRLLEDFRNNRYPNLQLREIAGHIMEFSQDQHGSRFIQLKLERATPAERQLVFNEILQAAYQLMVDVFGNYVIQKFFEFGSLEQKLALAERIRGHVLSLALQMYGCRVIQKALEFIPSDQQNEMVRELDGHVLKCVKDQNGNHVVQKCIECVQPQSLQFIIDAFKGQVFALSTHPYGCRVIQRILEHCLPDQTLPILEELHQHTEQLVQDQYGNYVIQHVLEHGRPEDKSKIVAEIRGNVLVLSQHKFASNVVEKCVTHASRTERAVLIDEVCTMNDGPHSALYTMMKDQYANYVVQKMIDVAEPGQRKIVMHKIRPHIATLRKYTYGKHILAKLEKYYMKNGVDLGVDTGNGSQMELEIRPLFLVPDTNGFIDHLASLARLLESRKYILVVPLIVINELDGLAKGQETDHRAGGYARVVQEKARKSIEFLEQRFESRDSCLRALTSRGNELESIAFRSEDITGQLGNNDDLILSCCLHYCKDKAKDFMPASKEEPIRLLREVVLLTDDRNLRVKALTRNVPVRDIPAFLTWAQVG

[3] = molecular target: PUF-E R1(SYxxR), R2(SYxxE), R3(NRxxQ), R5(SRxxE), R7(SYxxR), R8(SYxxE) (Homo sapiens) (UniProt Q14671); test: binding assay; conditions: yeast three-hybrid; control RNA (WT in FIG. 29C); protein in cells; protein details: Gal4 AD fusion
[4] = molecular target: PUF-D R1(SRxxE), R3(SYxxR), R4(SYxxE), R5(NRxxQ), R6(SYxxR) (Homo sapiens) (UniProt Q14671); test: binding assay; conditions: yeast three-hybrid; control RNA (WT in FIG. 29C); protein in cells; protein details: Gal4 AD fusion

UGCAUAUA [C3 RNA]
binding result [1]: binds

UUGAUAUA [7u6g RNA]
activity on this sequence [2]: not active

UGUAUAUA [NRE RNA]
binding result [3]: no binding | binding result [4]: no binding

For some of these results: A negative result means that nothing was seen under these conditions. For some of these results: Tags and fusion partners may be left off the protein sequences shown. For some of these results: Where cells or extracts were used, other partners may take part. For some of these results: The exact form of at least one protein or probe is not confirmed.
